Data published in publication PMC9198438.
These are yes or no findings as the source states them, for the method shown. Binding seen in cells or lysates may run through a third protein. For part of these data: Tags and fused reporters may be left off the sequences shown.

Chains of the proteins cited; added tags and fusions are not shown.
UniProt P23458: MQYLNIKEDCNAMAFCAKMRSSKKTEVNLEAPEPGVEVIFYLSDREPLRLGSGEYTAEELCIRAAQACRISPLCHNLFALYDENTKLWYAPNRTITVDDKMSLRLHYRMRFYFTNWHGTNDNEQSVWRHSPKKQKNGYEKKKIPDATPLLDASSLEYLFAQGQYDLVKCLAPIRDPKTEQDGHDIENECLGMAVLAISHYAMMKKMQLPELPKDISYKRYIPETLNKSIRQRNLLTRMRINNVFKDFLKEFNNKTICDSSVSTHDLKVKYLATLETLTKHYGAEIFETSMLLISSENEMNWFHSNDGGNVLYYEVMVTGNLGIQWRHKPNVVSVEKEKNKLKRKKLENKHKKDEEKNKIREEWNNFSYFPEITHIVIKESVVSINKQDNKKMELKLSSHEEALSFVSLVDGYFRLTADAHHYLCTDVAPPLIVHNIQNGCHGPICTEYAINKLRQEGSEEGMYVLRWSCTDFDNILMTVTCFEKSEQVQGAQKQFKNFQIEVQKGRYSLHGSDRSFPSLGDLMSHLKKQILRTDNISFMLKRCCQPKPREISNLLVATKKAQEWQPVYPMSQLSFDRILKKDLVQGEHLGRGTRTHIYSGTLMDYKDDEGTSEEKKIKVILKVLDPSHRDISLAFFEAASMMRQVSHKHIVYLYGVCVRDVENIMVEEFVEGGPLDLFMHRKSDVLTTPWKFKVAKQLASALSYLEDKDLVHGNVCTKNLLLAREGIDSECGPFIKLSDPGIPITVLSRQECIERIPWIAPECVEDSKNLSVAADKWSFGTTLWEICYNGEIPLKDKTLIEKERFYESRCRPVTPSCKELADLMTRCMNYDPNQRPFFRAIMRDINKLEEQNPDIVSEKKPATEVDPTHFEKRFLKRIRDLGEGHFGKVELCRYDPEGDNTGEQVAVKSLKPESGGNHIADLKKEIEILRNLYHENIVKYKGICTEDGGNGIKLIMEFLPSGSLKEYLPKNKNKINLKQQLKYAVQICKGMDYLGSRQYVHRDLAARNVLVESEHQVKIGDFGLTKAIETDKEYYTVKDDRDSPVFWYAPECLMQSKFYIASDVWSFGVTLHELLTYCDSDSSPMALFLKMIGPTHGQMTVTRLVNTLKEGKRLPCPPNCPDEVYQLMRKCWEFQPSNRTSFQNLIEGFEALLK
UniProt P42224: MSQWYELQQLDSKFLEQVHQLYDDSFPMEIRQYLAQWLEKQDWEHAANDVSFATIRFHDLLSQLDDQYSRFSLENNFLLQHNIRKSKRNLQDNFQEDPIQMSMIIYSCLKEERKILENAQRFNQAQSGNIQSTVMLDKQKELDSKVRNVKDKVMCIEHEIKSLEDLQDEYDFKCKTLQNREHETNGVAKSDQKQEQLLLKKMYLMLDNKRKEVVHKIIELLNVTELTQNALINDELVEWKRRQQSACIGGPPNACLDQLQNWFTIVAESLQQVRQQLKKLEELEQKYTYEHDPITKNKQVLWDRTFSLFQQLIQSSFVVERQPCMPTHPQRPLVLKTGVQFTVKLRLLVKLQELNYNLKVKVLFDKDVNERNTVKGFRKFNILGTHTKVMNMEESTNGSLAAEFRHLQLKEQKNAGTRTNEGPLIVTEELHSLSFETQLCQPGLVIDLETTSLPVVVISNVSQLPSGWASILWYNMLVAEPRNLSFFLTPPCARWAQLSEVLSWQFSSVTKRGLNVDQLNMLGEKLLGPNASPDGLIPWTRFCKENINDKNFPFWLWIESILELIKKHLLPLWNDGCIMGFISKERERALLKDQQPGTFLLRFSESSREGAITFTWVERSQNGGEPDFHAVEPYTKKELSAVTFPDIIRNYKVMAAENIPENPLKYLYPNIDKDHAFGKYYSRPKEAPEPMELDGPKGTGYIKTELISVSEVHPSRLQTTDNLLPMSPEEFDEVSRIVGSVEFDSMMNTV
UniProt P52630: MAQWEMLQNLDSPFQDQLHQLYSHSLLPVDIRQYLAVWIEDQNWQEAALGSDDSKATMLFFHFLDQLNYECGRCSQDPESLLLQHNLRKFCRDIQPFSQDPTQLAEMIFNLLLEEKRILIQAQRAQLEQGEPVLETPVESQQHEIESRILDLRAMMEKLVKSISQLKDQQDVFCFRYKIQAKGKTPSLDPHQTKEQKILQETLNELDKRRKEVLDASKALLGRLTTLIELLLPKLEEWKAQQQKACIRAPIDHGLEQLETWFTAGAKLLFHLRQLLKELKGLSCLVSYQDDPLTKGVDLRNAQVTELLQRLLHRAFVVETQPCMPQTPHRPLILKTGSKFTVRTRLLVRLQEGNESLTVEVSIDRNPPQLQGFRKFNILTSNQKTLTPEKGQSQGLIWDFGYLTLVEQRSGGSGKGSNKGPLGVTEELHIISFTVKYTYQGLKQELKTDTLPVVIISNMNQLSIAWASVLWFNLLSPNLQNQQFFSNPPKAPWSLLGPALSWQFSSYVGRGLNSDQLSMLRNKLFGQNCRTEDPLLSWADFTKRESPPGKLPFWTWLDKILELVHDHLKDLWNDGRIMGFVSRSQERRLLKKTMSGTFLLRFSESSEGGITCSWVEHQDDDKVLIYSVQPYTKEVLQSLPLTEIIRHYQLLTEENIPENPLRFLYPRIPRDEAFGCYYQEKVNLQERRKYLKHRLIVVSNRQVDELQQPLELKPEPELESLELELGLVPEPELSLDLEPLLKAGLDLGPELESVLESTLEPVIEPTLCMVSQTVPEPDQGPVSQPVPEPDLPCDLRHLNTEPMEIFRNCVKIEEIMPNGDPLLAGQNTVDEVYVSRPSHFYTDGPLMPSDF
UniProt Q5XX07: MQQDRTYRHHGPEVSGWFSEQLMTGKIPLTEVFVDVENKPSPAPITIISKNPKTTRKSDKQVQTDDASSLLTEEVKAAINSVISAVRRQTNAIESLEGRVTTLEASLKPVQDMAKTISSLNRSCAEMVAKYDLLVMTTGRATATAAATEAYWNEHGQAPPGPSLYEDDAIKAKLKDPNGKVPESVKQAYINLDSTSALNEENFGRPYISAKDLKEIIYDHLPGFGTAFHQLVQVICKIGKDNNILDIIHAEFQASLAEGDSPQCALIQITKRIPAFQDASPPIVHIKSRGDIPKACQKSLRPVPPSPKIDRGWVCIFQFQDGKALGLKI

Assays:
Assay in all cases: co-IP
[1] = target: Jak1 with a C-terminal V5-tag (UniProt P23458)
FLAG-tagged STAT1 = FLAG-tagged STAT1 (UniProt P42224)
FLAG-tagged STAT2 = FLAG-tagged STAT2 (UniProt P52630)

Molecule | binding [1] | binding (FLAG-tagged STAT1) | binding (FLAG-tagged STAT2)
FLAG-tagged Sudan Ebola virus VP35 protein (from UniProt Q5XX07 1-329) | no binding |  | 
V5-Wnt7A (protein, UniProt O00755 32-349) LGASIICNKIPGLAPRQRAICQSRPDAIIVIGEGSQMGLDECQFQFRNGRWNCSALGERTVFGKELKVGSREAAFTYAIIAAGVAHAITAACTQGNLSDCGCDKEKQGQYHRDEGWKWGGCSADIRYGIGFAKVFVDAREIKQNARTLMNLHNNEAGRKILEENMKLECKCHGVSGSCTTKTCWTTLPQFRELGYVLKDKYNEAVHVEPVRASRNKRPTFLKIKKPLSYRKPMDTDLVYIEKSPNYCEEDPVTGSVGTQGRACNKTAPQASGCDLMCCGRGYNTHQYARVWQCNCKFHWCCYVKCNTCSERTEMYTCK |  | no binding | no binding
